Earlier results as cited in patent publication US20260199350A1, “FLAVONES, QUINOLINONES, QUINAZOLINONES, AND AURONES, AND USES IN CK2-MEDIATED DISEASES” (Salk Institute for Biological Studies, priority 2022, published 2026).
pIC50: −log10 of the molar value. Some results were stated once for a whole list of compounds, not compound by compound.

System: CK2
Settings: cited from earlier work

O=c1cc(-c2ccc(O)cc2)oc2cc(O)cc(O)c12 [API, Apigenin]
pIC50: 6.10 to 7.10
